Data source: PubChem BioAssay AID1224828 (NIAID, 2016)

Purpose: 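Knock-downs that increase or decrease LPS-induced p65 nuclear translocation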 (primary screen)
Cells: mouse RAW264.7 G9 macrophage reporter cells (GFP-p65, Tnf promoter-mCherry)
Reagents: siRNA pool against mouse genes, 100 nM
Time to read-out: 2 days siRNA transfection, then 40 min LPS before fixation
Treatment: LPS (Salmonella minnesota R595) at 10 ng/ml
Read-out: 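Imaged p65 nuclear translocation ratio, normalised to the plate median, converted to robust z-scores and averaged across two replicates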
Direction: p65 translocation robust z-score: higher = more nuclear NF-kappaB p65 after LPS than the plate median; nuclear/cytoplasmic p65 ratio: higher = more nuclear NF-kappaB p65
Rule for the call: 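Active if robust z is above 3.3 (negative regulators) or below -1.56, the Tlr4 control median (positive regulators); activity score 50 or more; control wells not called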
Calls: active = hit (p65 shift raised or lowered); inactive = no clear change
In all, the deposit lists about 17,000 reagents; this is a random part of them. Of all reagents, 762 (4.5%) are marked active. 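Active calls include both raised and lowered p65 entry, mostly lowered; wells with fewer than 50 cells lack a z-score.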 The raw values are shown without normalisation. Entries without a mark were called inactive.

gene	p65 translocation robust z-score	nuclear/cytoplasmic p65 ratio, rep 1	nuclear/cytoplasmic p65 ratio, rep 2	low cell count flag
Cpa3 (carboxypeptidase A3, mast cell)	0.04	1.49	1.89	enough cells to score
Cks1b (CDC28 protein kinase 1b)	-2.7 (active)	1.13	1.15	enough cells to score
Otc (ornithine transcarbamylase)	-0.45	1.38	1.36	enough cells to score
Boll (boule homolog, RNA binding protein)		1.33	1.35	fewer than 50 cells per well; well left out of scoring
Cdk20 (cyclin dependent kinase 20)	-0.43	1.58	1.33	enough cells to score
Irak1bp1 (interleukin-1 receptor-associated kinase 1 binding protein 1)	-0.36	1.54	1.35	enough cells to score
Atxn1 (ataxin 1)	1.54	1.69	1.78	enough cells to score
Rela (Rela proto-oncogene, NFKB subunit)	-2.42 (active)	1.29	1.07	enough cells to score
Drap1 (DR1 associated protein 1)	-2.33 (active)	1.14	1.1	enough cells to score
Cadps2 (Ca2+-dependent activator protein for secretion 2)	-0.76	1.59	1.54	enough cells to score
Rsad2 (radical S-adenosyl methionine domain containing 2)	-0.93	1.44	1.51	enough cells to score
Mapk14 (mitogen-activated protein kinase 14)		1.58	1.4	fewer than 50 cells per well; well left out of scoring
En2 (engrailed 2)	-0.17	1.48	1.32	enough cells to score
Cyp3a25 (cytochrome P450, family 3, subfamily a, polypeptide 25)	0.84	1.73	1.89	enough cells to score
Chrna5 (cholinergic receptor, nicotinic, alpha polypeptide 5)	-1.33	1.32	1.18	enough cells to score
Ugcg (UDP-glucose ceramide glucosyltransferase)	-0.55	1.53	1.34	enough cells to score
Tfb2m (transcription factor B2, mitochondrial)	-0.29	1.47	1.48	enough cells to score
Mesd (mesoderm development LRP chaperone)	1.18	1.23	1.49	enough cells to score
Capn3 (calpain 3)	1.09	1.73	1.82	enough cells to score
Rp1 (retinitis pigmentosa 1 (human))	0.56	1.6	1.59	enough cells to score
Mgarp (mitochondria localized glutamic acid rich protein)	0.84	1.29	1.48	enough cells to score
Cish (cytokine inducible SH2-containing protein)	-1.54	1.28	1.18	enough cells to score
Taf10 (TATA-box binding protein associated factor 10)	0.54	1.59	1.39	enough cells to score
Rnf24 (ring finger protein 24)	0.53	1.53	1.25	enough cells to score
